# In US20150157783A1, “METHOD TO SELECTIVELY BIND AND EXTRACT PHOSPHATE” (priority 2013, published 2015):
# What was measured:
# [1] = Extraction of aqueous (Bu4N+)2HPO4 2− into CDCl3 receptor solution (NMR); conditions: for % Bu4N^+ extracted from (Bu4N^+)2HPO4^2−: 2 equivalents of receptor, 2 mM in CDCl3
# [2] = 2 equivalents of receptor, 2 mM in CDCl3
smiles,measurement,setting,value
"FC(F)(F)c1cc(NC(=S)Nc2ccccc2-c2cc(-c3ccccc3NC(=S)Nc3cc(C(F)(F)F)cc(C(F)(F)F)c3)cc(-c3ccccc3NC(=S)Nc3cc(C(F)(F)F)cc(C(F)(F)F)c3)c2)cc(C(F)(F)F)c1 [2-tris, 1,3,5-tris[2-(3-(3,5-Trifluoromethylphenyl)thioureido)phenyl]benzene]",bound receptor in the organic layer,[1]; 100 μM dibasic phosphate in aqueous solution,10%
same,% Bu4N^+ extracted from (Bu4N^+)2HPO4^2−,[1]; C0(aq) 0.10 mM,20%
same,% Bu4N^+ extracted from (Bu4N^+)2HPO4^2−,[1]; C0(aq) 0.33 mM,38%
same,% Bu4N^+ extracted from (Bu4N^+)2HPO4^2−,[1]; C0(aq) 1.0 mM,51%
same,% Bu4N^+ extracted from (Bu4N^+)2HPO4^2−,[1]; C0(aq) 10 mM,87%
same,% Bu4N^+ extracted from Bu4N^+H2PO4^−,[2]; C0(aq) 1.0 mM,30%
same,% Bu4N^+ extracted from Bu4N^+H2PO4^−,[2]; C0(aq) 10 mM,55%

# Read-outs that look alike come from different tables or passages of the source.
